PubChem BioAssay AID504467 (National Center for Advancing Translational Sciences (NCATS), 2011)
Several values for one entry are separate records, joined by “and”; a condition that tells them apart may be missing. Equal entries are not always repeated. Out of some 330,000 compounds screened, about 7,700 (2.3%) were called active. Inconclusive results, whose numbers are uncertain, are shown with a selection of clear calls. Calls come from the whole dose curve; as a rule, active = well fitted inhibition curve with a large enough effect; inconclusive = small, poorly fitted or top-dose-only effect, or effect the other way; inactive = flat fitted curve, though single readings scatter. A potency beside an inconclusive call is a rough fit, not a confirmed value.
% is set by controls: 0 for no effect and ±100 for the full control effect; potency is the fitted concentration of half-maximal effect.

Test: qHTS screen for small molecules that inhibit ELG1-dependent DNA repair in human embryonic kidney (HEK293T) cells expressing luciferase-tagged ELG1; note: nearly all actives have a fitted effect of over 55% in size
Settings: HEK293T ELG1-luciferase reporter, luminescence, 16 h, DNA damage induced by 5-fluorouridine; activity change, negative = inhibition: at 46.1 µM (top of the series)
Procedure, shortened: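 Overnight (16 hr) co-exposure of 2,000 cells/well to 5-fluorouridine and compound at 37 °C preceded detection. Luciferase was quantified via ONE-Glo luminescence; loss of signal denotes inhibition.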
In the case of `O=C(Nc1nnc(C2CC2)s1)c1cc2c(s1)CCCCCC2`, the Potency is reported as inconclusive: 0.13 µM [activator, full curve].
In the case of `CCOc1ccc(NC(=O)c2cn(-c3ccc(OCC)cc3)c(=O)c3cc(OC)c(OC)cc23)cc1`, the Potency is reported as inconclusive: 18.4 µM [inhibitor, partial curve, poor fit].
With `CCN(CC)S(=O)(=O)c1ccc(N2CCCC2)c(NS(=O)(=O)c2ccc(OC)cc2)c1` the “activity change, negative = inhibition” value was inactive: -3.99%.
In the case of `CN(c1ccccc1)S(=O)(=O)c1ccc(NC(=O)c2ccc(-c3ccccc3)cc2)cc1`, the Potency is reported as inconclusive: 23.1 µM [inhibitor, partial curve].
With `COc1ccc(C(=O)N2CCC(C(=O)c3c(C)cc(C)cc3C)CC2)cc1` the Potency was inconclusive: 23.1 µM [inhibitor, single point].
For `O=c1c2sc(-c3ccccc3)cc2nc2n1CCC2`, the Potency was inconclusive: 1.64 µM [activator, partial curve].
In the case of `CSc1ccccc1NC(=O)COc1ccccc1Cl`, the Potency is reported as inconclusive: 20.6 µM [activator, single point].
With `N#Cc1ccc(C2=NC(C(F)(F)F)(C(F)(F)F)c3c(n(Cc4ccco4)c(=O)[nH]c3=O)N2)cc1` the Potency was inconclusive: 18.4 µM [inhibitor, single point].
For `COc1ccc(CC2S/C(=N/N=C/c3ccccc3O)NC2=O)cc1` (stereo not drawn), the Potency was inconclusive: 14.6 µM [inhibitor, partial curve, poor fit].
For `CCn1c(SCc2ccccc2)nnc1-c1cccnc1`, the Potency was inconclusive: 18.3 µM [inhibitor, single point].
With `CC(=O)/C(N=Nc1cc2c(c([N+](=O)[O-])c1C)C(C)(C)CC2(C)C)=C(\C)O` the Potency was inconclusive: 29.1 µM [inhibitor, single point].
For `O=[N+]([O-])c1ccc(N2CCN(Cc3ccncc3)CC2)cc1`, the Potency was inconclusive: 1.83 µM [inhibitor, partial curve].
With `COc1ccc(-c2nc3c4c(ncn3n2)-c2ccccc2CC42CCCC2)cc1` the “activity change, negative = inhibition” value was inactive: -5.92%.
In the case of `COc1ccc(C2C3=C(Nc4ncnn42)c2ccccc2CCC3)cc1` (stereo not drawn), the “activity change, negative = inhibition” value is reported as inactive: 2.84%.
For `CC1=C(C(=O)Nc2ccccn2)C(c2ccc(N(C)C)cc2)n2ncnc2N1` (stereo not drawn), the “activity change, negative = inhibition” value was inactive: 10.4%.
In the case of `Cc1nc2ccccc2c(C)c1C(=O)c1ccc(F)cc1`, the Potency is reported as active: 14.6 µM.
With `CCOCCCNC(=O)c1cc2c(=O)n(CC)c3ccccc3c2s1` the “activity change, negative = inhibition” value was inactive: -16.3%.
For `CCN(CC)C(=O)C1CCN(S(=O)(=O)c2ccc(C3CNC(=O)C3)cc2)CC1` (stereo not drawn), the “activity change, negative = inhibition” value was inactive: -6.08%.
With `COCCn1c(C)cc(/C=C2/SC(=O)N(C(C)C(=O)OC)C2=O)c1C` (stereo not drawn) the Potency was inconclusive: 3.26 µM [activator, full curve].
With `Cc1ccc(N2C(=O)[C@@H]3C(c4cccnc4)=NO[C@@H]3C2=O)cc1` the Potency was inconclusive: 1.16 µM [inhibitor, single point].
For `O=C(Nc1ccccc1)Nc1ccccn1`, the Potency was inconclusive: 20.6 µM [activator, partial curve] and inconclusive: 18.4 µM [activator, partial curve, poor fit].
For `O=C(CS(=O)(=O)c1ccccc1)Nc1cccnc1`, the “activity change, negative = inhibition” value was inactive: 11.4%.
With `O=C(O)C1CCCN1S(=O)(=O)c1ccc(Br)s1` (stereo not drawn) (tested in a mixture with another compound) the “activity change, negative = inhibition” value was inactive: 16.1%.
For `COc1ccccc1OCCNC(=O)c1cccc(S(=O)(=O)N2CC(C)OC(C)C2)c1` (stereo not drawn), the Potency was inconclusive: 29.1 µM [inhibitor, single point].
For `CCOC(=O)c1[nH]c(C)c(CCC(=O)OC)c1C`, the Potency was inconclusive: 25.9 µM [activator, single point].
For `CSc1ccc(/C=C/C(=O)OCC(=O)NC2CC2)cc1`, the Potency was inconclusive: 18.3 µM [activator, single point].
For `Cc1ccc(S(=O)(=O)N2CCCC2)cc1C(=O)NCC(C)(C)N1CCOCC1`, the Potency was inconclusive: 0.184 µM [inhibitor, single point].
With `CC(C)(C)c1ccc(OCCC(=O)Nc2ccc(N3CCOCC3)cc2N2CCOCC2)cc1` the Potency was active: 20.6 µM.
For `COc1ccc(NC(=O)c2ccccc2SC)cc1`, the Potency was inconclusive: 29.1 µM [activator, single point].
With `O=[N+]([O-])c1ccc(Cc2ccncc2)cc1` the “activity change, negative = inhibition” value was inactive: -8.65%.
For `COc1ccc2c(C(=O)CN3CCC(C)CC3)c[nH]c2c1`, the Potency was inconclusive: 16.4 µM [activator, single point].
With `Cc1ccc(NC(=O)Cc2ccc(Cl)c(Cl)c2)cc1S(=O)(=O)N(C)C` the Potency was active: 14.6 µM.
With `CC(=O)Nc1ccccc1OCC(=O)c1ccc2c(c1)OCO2` the Potency was inconclusive: 10.3 µM [activator, partial curve].
In the case of `CC1CN(/C=C/C(=O)C(F)(F)F)CC(C)O1` (stereo not drawn), the Potency is reported as inconclusive: 8.2 µM [activator, partial curve, poor fit].
With `O=C(NCc1ccc(Cl)cc1)c1cccc(NC(=O)c2ccccc2)c1` the Potency was active: 18.4 µM.
For `COc1cccc(-n2nc(-c3ccnn3-c3ccc(F)cc3)c(=O)n(C)c2=O)c1`, the Potency was inconclusive: 8.2 µM [inhibitor, partial curve].
For `O=C(/C=C/Nc1ccc(Oc2ccccc2)cc1)c1ccco1`, the Potency was inconclusive: 2.06 µM [activator, full curve].
In the case of `CC(C)CN1C(=O)c2ccc(C(=O)Nc3nccs3)cc2C1=O`, the Potency is reported as inconclusive: 0.82 µM [activator, full curve, poor fit].
For `CC(C)S(=O)(=O)C1=NSC2=NC(=O)/C(=C\c3ccc(-c4cccc(C(=O)O)c4)o3)C(=N)N21`, the “activity change, negative = inhibition” value was inactive: 18.8%.
In the case of `CCOC(=O)Cn1cnc2c(cnn2-c2ccccc2)c1=O`, the Potency is reported as inconclusive: 23.1 µM [activator, single point].
With `O=C(COc1cccc2c1CCN(Cc1ccccc1)C2=O)N1CCCCC1` the Potency was inconclusive: 25.9 µM [inhibitor, single point].
For `CCN1C(=O)CSc2ccc(C(=O)OC)cc21`, the Potency was inconclusive: 16.4 µM [activator, partial curve, poor fit].
With `CC(C)CN1CC(COCc2ccccc2)Oc2ccccc2S1(=O)=O` (stereo not drawn) the Potency was inconclusive: 18.3 µM [inhibitor, partial curve, poor fit].
